Record: PubChem BioAssay AID504793 (Drosophila RNAi Screening Center, 2011)
Purpose: 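Whole-genome screen for parts of the DNA damage checkpoint at G2/M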 (primary screen). System: Drosophila S2R+ cells. Reagent: long dsRNA against Drosophila genes, about 0.25 µg dsRNA per well. Timing: 4 days of dsRNA, then 4 hours of drug before read-out. Conditions: doxorubicin 0.5 µM for 4 hours to cause double-strand breaks, in cells also given a low, harmless dose of dsRNA against nbs to sensitise the assay. Measured: 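Mitotic index as the number of phospho-histone H3-positive cells in each well following doxorubicin, given as raw counts without normalisation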. Direction: mitotic cells: higher = more cells in mitosis, weaker G2 arrest. Hit rule: 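a call needs confirmation in secondary tests, with other dsRNAs and a check of mitotic timing without damage, not just a high primary count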. Calls: active = confirmed in follow-up tests; inactive = not confirmed.
The deposit covers about 23,000 reagents; shown is a random part of those that have a named target and a result. In the full data, 62 (0.27%) are marked active. 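Calls come from follow-up tests whose scores are not deposited, so confirmed genes may have low counts here; counts are not normalised per plate.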 The raw values are shown without normalisation. A plus sign joins genes that one reagent is predicted to hit.

CG3719 [DRSC18493] → mitotic cells, replicate 1 = 6; outcome = inactive
CG5880 [DRSC15906] → mitotic cells, replicate 1 = 11; outcome = inactive
asRNA:CR31084 [DRSC21649] → mitotic cells, replicate 1 = 15; outcome = inactive
rho-4 [DRSC19761] → mitotic cells, replicate 1 = 6; outcome = inactive
rho-4 [DRSC19762] → mitotic cells, replicate 1 = 16; outcome = inactive
CG7900 [DRSC16336] → mitotic cells, replicate 1 = 9; outcome = inactive
CG7900 [DRSC21343] → mitotic cells, replicate 1 = 11; outcome = inactive
Ptp52F [DRSC06717] → mitotic cells, replicate 1 = 6; outcome = inactive
CG32199 [DRSC09990] → mitotic cells, replicate 1 = 6; outcome = inactive
CysRS [DRSC05948] → mitotic cells, replicate 1 = 10; outcome = inactive
CysRS [DRSC26620] → mitotic cells, replicate 1 = 4; outcome = inactive
Kua [DRSC02100] → mitotic cells, replicate 1 = 1; outcome = inactive
CG14752 [DRSC06488] → mitotic cells, replicate 1 = 3; outcome = inactive
CG17824 (retired record) [DRSC10288] → mitotic cells, replicate 1 = 4; outcome = inactive
CG2209 [DRSC19843] → mitotic cells, replicate 1 = 12; outcome = inactive
CG31013 [DRSC16542] → mitotic cells, replicate 1 = 14; outcome = inactive
CG31031 (retired record) [DRSC13964] → mitotic cells, replicate 1 = 8; outcome = inactive
PAN2 [DRSC07115] → mitotic cells, replicate 1 = 5; outcome = inactive
ttm2 [DRSC08268] → mitotic cells, replicate 1 = 12; outcome = inactive
upd3 [DRSC19636] → mitotic cells, replicate 1 = 5; outcome = inactive
upd3 [DRSC19968] → mitotic cells, replicate 1 = 15; outcome = inactive
upd3 [DRSC22169] → mitotic cells, replicate 1 = 20; outcome = inactive
CG18754 [DRSC15387] → mitotic cells, replicate 1 = 9; outcome = inactive
boss [DRSC16916] → mitotic cells, replicate 1 = 4; outcome = inactive
boss [DRSC25941] → mitotic cells, replicate 1 = 6; outcome = inactive
snama [DRSC04049] → mitotic cells, replicate 1 = 11; outcome = inactive
snama [DRSC28914] → mitotic cells, replicate 1 = 8; outcome = inactive
CG15097 [DRSC06526] → mitotic cells, replicate 1 = 2; outcome = inactive
CG15097 [DRSC27170] → mitotic cells, replicate 1 = 7; outcome = inactive
smid [DRSC11398] → mitotic cells, replicate 1 = 1; outcome = inactive
smid [DRSC28019] → mitotic cells, replicate 1 = 6; outcome = inactive
CG14546 [DRSC14890] → mitotic cells, replicate 1 = 6; outcome = inactive
CG33964 + CG13175 [DRSC06300] → mitotic cells, replicate 1 = 1; outcome = inactive
CG33964 + CG13175 [DRSC06301] → mitotic cells, replicate 1 = 3; outcome = inactive
CG33964 + CG13175 [DRSC07184] → mitotic cells, replicate 1 = 3; outcome = inactive
Taf4 [DRSC11297] → mitotic cells, replicate 1 = 6; outcome = inactive
Taf4 [DRSC25921] → mitotic cells, replicate 1 = 9; outcome = inactive
hec [DRSC19895] → mitotic cells, replicate 1 = 6; outcome = inactive
CG31805 [DRSC01563] → mitotic cells, replicate 1 = 8; outcome = inactive
Not3 [DRSC04908] → mitotic cells, replicate 1 = 4; outcome = inactive
Not3 [DRSC27324] → mitotic cells, replicate 1 = 7; outcome = inactive
PolE2 [DRSC09737] → mitotic cells, replicate 1 = 9; outcome = inactive
CG4554 [DRSC04473] → mitotic cells, replicate 1 = 10; outcome = inactive
CG4554 [DRSC27881] → mitotic cells, replicate 1 = 7; outcome = inactive
